The source of these data is patent US20120100536A1.

Protein sequences, listed by entry. Tags and fused reporters are not part of them. Lines headed by an entry give the natural chain unless they say otherwise; changes in a name come on top. Residues count along the entry.
UniProt P01009, residues 25-418: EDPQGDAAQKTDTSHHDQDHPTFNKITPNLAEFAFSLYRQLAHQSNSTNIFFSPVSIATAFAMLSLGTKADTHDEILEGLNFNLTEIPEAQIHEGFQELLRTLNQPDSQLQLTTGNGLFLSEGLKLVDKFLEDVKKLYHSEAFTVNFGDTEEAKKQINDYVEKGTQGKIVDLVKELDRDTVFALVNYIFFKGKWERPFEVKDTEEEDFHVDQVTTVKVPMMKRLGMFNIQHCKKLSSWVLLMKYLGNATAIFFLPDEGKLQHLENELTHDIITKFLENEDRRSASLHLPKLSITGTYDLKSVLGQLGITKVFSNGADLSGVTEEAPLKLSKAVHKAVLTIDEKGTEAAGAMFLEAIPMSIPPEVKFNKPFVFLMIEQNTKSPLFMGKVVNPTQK
UniProt Q92743: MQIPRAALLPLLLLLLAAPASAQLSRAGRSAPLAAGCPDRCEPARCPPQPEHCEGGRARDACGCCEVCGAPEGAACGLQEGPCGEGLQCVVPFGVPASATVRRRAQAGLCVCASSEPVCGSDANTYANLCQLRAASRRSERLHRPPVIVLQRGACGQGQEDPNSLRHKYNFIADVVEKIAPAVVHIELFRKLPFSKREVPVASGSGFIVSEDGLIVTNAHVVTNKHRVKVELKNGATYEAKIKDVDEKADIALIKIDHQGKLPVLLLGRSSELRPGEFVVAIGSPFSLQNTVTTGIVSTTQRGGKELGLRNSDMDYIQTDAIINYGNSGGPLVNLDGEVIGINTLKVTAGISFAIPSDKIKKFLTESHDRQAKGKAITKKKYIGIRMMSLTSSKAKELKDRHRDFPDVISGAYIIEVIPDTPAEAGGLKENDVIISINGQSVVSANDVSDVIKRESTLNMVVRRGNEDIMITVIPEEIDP

The target of the assay is α1-antitrypsin (UniProt P01009). Briefly: co-expression in HEK293, anti-V5 immunoblot of conditioned medium (covalent complex). On the technique in general: Immunoblotting shows a protein as a band on a membrane.

Results are given in words; binding and its absence hold for the method and conditions named. Some binding calls cover weakened binding; strength is not graded here.

As for “HTRA1 R370X with a V5 tag at the C-terminus (from UniProt Q92743 23-369) (enzyme)”, the binding result is listed as “binds”.

For the substance “wild-type HTRA1 with a V5 tag at the C-terminus (from UniProt Q92743 23-480) (enzyme)”, the binding entry is “binds”.
